# From PubChem BioAssay AID504467 (National Center for Advancing Translational Sciences (NCATS), 2011)
# Screen size: about 330,000 compounds; about 7,700 (2.3%) were called active. Inconclusive means that the source gave no clear call. Such entries were picked first, then a sample of the others. Calls follow the shape of the dose curve; as a rule, active = well fitted inhibition curve with a large enough effect; inconclusive = small, poorly fitted or top-dose-only effect, or effect the other way; inactive = flat fitted curve, though single readings scatter. A potency beside an inconclusive call is a rough fit, not a confirmed value.
# Assay: qHTS screen for small molecules that inhibit ELG1-dependent DNA repair in human embryonic kidney (HEK293T) cells expressing luciferase-tagged ELG1; also: nearly all actives have a fitted effect of over 55% in size
# Conditions: HEK293T ELG1-luciferase reporter, luminescence, 16 h, DNA damage induced by 5-fluorouridine; series mostly up to 46.1 µM
# Outline: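 Luminescence from the luciferase reporter, measured 30 min after ONE-Glo reagent at room temperature, was the read-out. Beforehand, 2,000 cells per well were exposed for 16 hr at 37 °C to 5-fluorouridine together with compound or vehicle.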
# Potency is read from the fitted curve at half-maximal effect.
row,SMILES,Potency
1,CC(Sc1nnnn1C)C(=O)Nc1ccc(N2CCOCC2)cc1 (stereo unspecified),inactive
2,Oc1ccc(-c2cn3c(n2)SCC3)cc1O,"inconclusive: 9.2 µM [activator, partial curve]"
3,O=S(=O)(N/N=C/c1ccccc1OCc1ccc(Cl)cc1)c1ccccc1,"inconclusive: 23.1 µM [activator, partial curve, poor fit]"
4,Cc1ccccc1OCC(=O)OCC(=O)NCC1CCCCC1,"inconclusive: 20.6 µM [activator, single point]"
5,CC1CCCCC12NC(=O)N(CC(=O)OCc1ccc(Br)cc1)C2=O (stereo unspecified),"inconclusive: 20.6 µM [inhibitor, single point]"
6,Cn1nc(-c2ccc(C(=O)NCC3CCCO3)cc2)c2ccccc2c1=O (stereo unspecified),"inconclusive: 23.1 µM [activator, single point]"
7,COc1ccc(OC)c(NC(=O)Cn2cc(C#N)c3cc(Br)ccc32)c1,"inconclusive: 29.1 µM [inhibitor, single point]"
8,O=S(=O)(Nc1cccc2ccccc12)c1ccccc1,"inconclusive: 2.59 µM [activator, partial curve, poor fit]"
9,Cc1cc(NC(=O)COC(=O)c2c(C)c(C)c(C)c(C)c2C)no1,"inconclusive: 18.3 µM [inhibitor, partial curve, poor fit]"
10,CCOc1ccc(NC(=O)c2ccc(OC)cc2)cc1,"inconclusive: 7.31 µM [activator, partial curve]"
11,CN(C)c1ccc(C(=O)Nc2nnc(C3=COCCO3)o2)cc1,"inconclusive: 20.6 µM [activator, single point]"
12,CCOC(=O)CN=C/C(C(C)=O)=C(/C)O,inactive
13,O=C(NCCCc1ccccc1)c1cccc([N+](=O)[O-])c1,"inconclusive: 16.4 µM [activator, partial curve, poor fit]"
14,CC/C(=N/N=C(\CC)c1ccccc1)c1ccccc1,inactive
15,COc1ccc(CCNC(=O)COc2ccc3c(C)cc(=O)oc3c2)cc1OC,inactive
16,CS(=O)(=O)N(CC(=O)N1CCCC1)c1cccc(F)c1,inactive
17,S=C(Nc1ccccc1)Nc1ccc(Br)cn1,inactive
18,COc1ccc(S(=O)(=O)N2CCCCC2)cc1NS(=O)(=O)c1ccc(CNC(C)=O)cc1,inactive
19,COc1ccc(C2=Nn3c(nnc3-c3ccncc3)SC2)cc1OC,"inconclusive: 20.6 µM [inhibitor, partial curve, poor fit]"
20,O=C(Nc1ccc(CN2CCOCC2)cc1)c1cccc(F)c1,"inconclusive: 10.3 µM [activator, partial curve]"
21,COc1cccc(NC(=O)NC2CCCCCCC2)c1,"inconclusive: 11.6 µM [activator, partial curve]"
22,CCn1c2ccccc2c2cc(NC(=O)C(=O)N3CCOCC3)ccc21,"inconclusive: 18.3 µM [activator, single point]"
23,CCOc1ccc2[nH]c3c(NCCC(C)C)ncnc3c2c1,"inconclusive: 29.1 µM [inhibitor, single point]"
24,O=C(NC(=S)NCCN1CCOCC1)c1ccc(Cl)cc1,"inconclusive: 29.1 µM [activator, single point]"

row,SMILES,Potency
1,Cc1nnc(SCC(=O)Nc2sc3c(c2C#N)CCCCC3)n1N,"inconclusive: 18.4 µM [activator, single point]"
2,CC(C)C[C@H](NC(=O)N1CC(=O)Nc2ccccc21)C(=O)N[C@H](Cc1ccccc1)C(=O)O,inactive
3,Cc1cc(C(=O)N/N=C/c2ccc(N(C)C)cc2)c2ccccc2n1,inactive
4,CC(NCCC(Cc1ccccc1)c1ccco1)c1ccccc1 (stereo unspecified),inactive
5,O=C(CSc1nnc2scc(-c3ccccc3)n12)N1CCN(Cc2ccccc2)CC1,inactive
6,Cn1c(N)c(C(=O)COC(=O)/C=C/c2ccccc2F)c(=O)n(C)c1=O,"inconclusive: 32.6 µM [inhibitor, single point]"
7,CCCCNC(=S)Nc1ccc2nc(N3CCN(CC)CC3)cc(C)c2c1,inactive
8,O=C(C[C@H]1C/C=C\CC[C@H](Cc2ccc(F)cc2)C(=O)OC[C@@H]2CCCN2C1=O)N[C@H](CO)Cc1ccccc1,inactive
9,CCOc1ccc(NC(=O)Nc2cccc(C(=O)O)c2)cc1,"inconclusive: 0.461 µM [activator, partial curve, poor fit]"
10,COCCNC(=S)Nc1ccc2nsnc2c1,inactive
11,N#Cc1ccccc1NC(=O)C(=O)NCCCN1CCCC1=O,"inconclusive: 29.1 µM [activator, single point]"
12,O=C1C2C3c4ccccc4C(c4ccccc43)C2c2nc3ccccc3n21 (stereo unspecified),active: 16.4 µM
13,CC12CCC(=O)N1C(C(=O)NNC(=O)COc1ccccc1Cl)CS2 (stereo unspecified),"inconclusive: 18.3 µM [activator, partial curve, poor fit]"
14,Cc1[nH]c2ccc(F)cc2c1CCN(Cc1cccnc1)C(=S)Nc1ccc(F)cc1,"inconclusive: 29.1 µM [inhibitor, single point]"
15,CCS(=O)(=O)N1CCCC(C(=O)NCCN2CCC(Cc3ccccc3)CC2)C1 (stereo unspecified),inactive
16,CC1CCN(S(=O)(=O)c2ccc(C(=O)N3CCCC3C(=O)O)cc2)CC1 (stereo unspecified),inactive
17,COc1ccc(OC)c(NC(=O)CC2Oc3ccccc3NC2=O)c1 (stereo unspecified),"inconclusive: 6.51 µM [activator, partial curve, poor fit]"
18,Cc1ccc(NCc2cccnc2)c(Br)c1,"inconclusive: 16.4 µM [activator, partial curve, poor fit]"
19,Cc1cc(C)c2nc(N3CCCC(C(=O)NCCN4CCOCC4)C3)sc2c1 (stereo unspecified),"inconclusive: 14.6 µM [activator, partial curve]"
20,CCCN1CCN(C(=O)c2noc3c2COc2ccc(C)cc2-3)CC1,"inconclusive: 23.1 µM [activator, single point]"
21,Cc1ccc(OCCSc2cc(C)nc(N)n2)cc1,"inconclusive: 15.8 µM [activator, partial curve, poor fit]"
22,COC(=O)C1=C(O)/C(=C\c2cc(C)n(-c3ccccc3C)c2C)N=C1C,inactive
23,COc1cc(SC)ccc1C(=O)OCC(=O)N1CCCC1,"inconclusive: 16.4 µM [activator, partial curve]"
24,CC(c1ccccc1)n1cnc2ccccc21 (stereo unspecified),inactive

# Individual results from above.
# COCCNC(=S)Nc1ccc2nsnc2c1 – Potency: inactive
# CCCN1CCN(C(=O)c2noc3c2COc2ccc(C)cc2-3)CC1 – Potency: inconclusive: 23.1 µM [activator, single point]
# Cc1nnc(SCC(=O)Nc2sc3c(c2C#N)CCCCC3)n1N – Potency: inconclusive: 18.4 µM [activator, single point]

# The listing continues.

row,SMILES,Potency
1,NC(=O)C1CCN(c2oc(-c3ccc(F)cc3)nc2S(=O)(=O)c2ccccc2)CC1,"inconclusive: 15.8 µM [inhibitor, partial curve, poor fit]"
2,Oc1c(/C=C/C=C/C=Nc2ccccc2)sc(=S)n1Cc1ccccc1,"inconclusive: 29.1 µM [activator, single point]"
3,O=C(CSc1nccn1-c1ccccc1)c1ccc(Br)cc1,"inconclusive: 25.9 µM [activator, single point]"
4,O=C(c1cccs1)N(Cc1ccco1)c1nc(-c2ccc(F)cc2)cs1,"inconclusive: 29.1 µM [inhibitor, single point]"
5,CCOc1ccc(N(CC(=O)Nc2ccc(OC)cc2)S(C)(=O)=O)cc1,"inconclusive: 20.6 µM [activator, partial curve]"
6,O=C(NCC(c1ccco1)N1CCc2ccccc2C1)C(=O)Nc1cc(F)ccc1F (stereo unspecified),inactive
7,O=C(Nc1nnc(-c2ccc3c(c2)OCCO3)o1)C1CCCCC1,"inconclusive: 11.6 µM [activator, partial curve]"
8,O=C(Cc1ccccc1F)NC1CCCc2ccccc21 (stereo unspecified),"inconclusive: 11.6 µM [activator, partial curve]"
9,Cc1ccc(NC(=O)CSc2ncnc3ccccc23)cc1S(=O)(=O)N1CCOCC1,"inconclusive: 3.66 µM [inhibitor, partial curve]"
10,CCOc1cccc(C(=O)NC(=S)Nc2ccccc2)c1,"inconclusive: 16.4 µM [activator, partial curve]"
11,Cc1ccc2oc(-c3ccc(NC(=O)c4cccnc4)cc3)nc2c1,"inconclusive: 2.59 µM [activator, single point]"
12,CC(=O)Nc1cccc(OCc2c(F)cccc2Cl)c1,"inconclusive: 20.6 µM [activator, single point]"
13,O=C(Nc1ccccc1)Nc1ccccc1C(=O)NCC1CC1,inactive
14,COc1ccc2[nH]c(=O)c(C(c3nnnn3C3CCCC3)N3CCN(Cc4ccc5c(c4)OCO5)CC3)cc2c1 (stereo unspecified),"inconclusive: 29.1 µM [inhibitor, partial curve, poor fit]"
15,CCOC(=O)c1sc(NC(=S)NC(=O)c2ccc(OC)cc2)nc1C,"inconclusive: 0.259 µM [inhibitor, partial curve, poor fit]"
16,CCOc1ccc(C(C)NC(=O)C2CCCC2)cc1 (stereo unspecified),inactive
17,CC1CN(C(=O)/C=C/c2ccc(SC(F)F)cc2)CC(C)O1 (stereo unspecified),inactive
18,C=CCNC(=S)NNC(=O)COc1ccc(Cl)cc1Cl,"inconclusive: 23.1 µM [activator, partial curve, poor fit]"
19,COc1ccc(C)c2sc(NNC(=O)COc3ccccc3)nc12,"inconclusive: 29.1 µM [activator, single point]"
20,O=C1CCCN1CC(=O)N1CCCC(N2CCN(c3cccc(Cl)c3)CC2)C1 (stereo unspecified),inactive
21,Cc1ccc(S(=O)(=O)N2CCC(C(=O)Nc3ccccc3N3CCCC3)CC2)cc1,"inconclusive: 29.1 µM [inhibitor, single point]"
22,COc1ccc(-c2c[n+]3c(n2-c2ccccc2)SCC3)cc1,"inconclusive: 6.51 µM [inhibitor, partial curve]"
23,CCc1ccccc1N(CC(=O)NCCSCc1ccco1)S(C)(=O)=O,"inconclusive: 29.1 µM [inhibitor, partial curve, poor fit]"
